# According to PMC12548414:
# The whole screen tested about 1,600 compounds, of which about 20 (1%) showed an effect of 50% or more. This is one part of the list.
# Test system: T1, E. coli pLC1021 (luc-trpAt trans-translation reporter)
# T1 construct: pLC1021 luc-trpAt reporter strain
# Set-up: species or system Escherichia coli pLC1021; luc-trpAt non-stop luciferase reporter; luminescence rises when trans-translation is inhibited; normalized to KKL-35 and DMSO
# Settings: reporter signal, KKL-35 = 100%; rise means trans-translation inhibition; 2 h, 20 µM
# Outline: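 Luminescence (560 nm, 10 min after Bright-Glo) reports luciferase that escapes trans-translation tagging, measured after 2 h room-temperature treatment with 20 µM compound. Each plate was scaled between DMSO (negative) and 20 µM KKL-35 (positive) controls. Compounds scoring one standard deviation above the median counted as positive; at least two biological repeats.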
row,Compound,% activation [%]
1,Cc1c(CN2CCC(CO)(CCOc3ccccc3)CC2)[nH]c2c(Cl)cccc12 [KKL-0669],0
2,CCOC(=O)COc1ccc2c(=O)c(Oc3cnn(-c4ccccc4)c3)c(C)oc2c1 [KKL-1201],12
3,Cc1cccc(OCCCn2cnc3cc(C)c(C)cc32)c1 [KKL-1257],10
4,CCCCc1cc(=O)oc2cc(OC(C)C(=O)OCC)c(Cl)cc12 (stereo not drawn) [KKL-0297],0
5,CCCc1cc2c(=O)c(-c3ccc4c(c3)OCCCO4)coc2cc1OCC(=O)OCC [KKL-1419],0
6,O=C(NCCCc1ccc(F)cc1)c1cc(-c2ccccn2)[nH]n1 [KKL-0693],0
7,CSc1ncc(C(=O)Nc2cccc(-c3csnn3)c2)cn1 [KKL-0679],0
8,CC(=O)OC1CC2C(COC(=O)CC(C)C)=COC(OC(=O)CC(C)C)C2C1(O)COC(=O)CC(C)C (stereo not drawn) [KKL-1614],0
9,Cc1cc(OCC(=O)NC[C@H]2CC[C@H](c3nnc(-c4cccs4)o3)CC2)ccc1Cl [KKL-0524],0
10,COc1ccccc1-c1csc(NC(=O)c2cccc(Cn3nc(C)cc3C)c2)n1 [KKL-0559],3
11,COC(=O)COc1ccc(NC(=O)COc2ccc(C(C)(C)C)cc2)cc1 [KKL-1271],0
12,O=C(Nc1ccc(NC2=NCCN2)cc1)c1ccc(C(=O)Nc2ccc(NC3=NCCN3)cc2)cc1 [KKL-1729],0
13,O=C(N[C@H](CO)[C@H](O)c1ccc([N+](=O)[O-])cc1)C(Cl)Cl [KKL-0367],0
14,Cc1c(CN2CCC(C(=O)Nc3ccc(-n4cnnn4)cc3)CC2)[nH]c2ccc(F)cc12 [KKL-1181],2
15,COc1ccc(-c2csc(-c3ccc(OC)c(OC)c3)n2)cc1C [KKL-0864],1
16,COc1ccccc1NC(=O)CSc1nc(-c2ccccc2)cc(C(F)(F)F)c1C#N [KKL-1359],0
17,O=C(NCc1ccccc1F)N1CCN(Cc2ccc(Br)s2)CC1 [KKL-1829],1
18,C=CCNc1nnc(Sc2ncccc2[N+](=O)[O-])s1 [KKL-0849],0
19,CCC(C)c1ccc(O)c(NC(=S)NC(=O)c2ccc(-c3ccc(Cl)cc3)o2)c1 (stereo not drawn) [KKL-0745],0
20,CCc1nc2sc(C(=O)NCc3ccc(F)cc3)c(N)c2c(C(F)(F)F)c1C [KKL-0606],1
21,Cc1ccc(C)c(-c2nn(-c3cc(N4CCN(C)CC4)ccc3[N+](=O)[O-])c(=O)c3ccccc23)c1 [KKL-1426],0

row,Compound,% activation [%]
1,COc1ccc2nc(C)cc(SCC(=O)Nc3cc(Cl)ccc3Cl)c2c1 [KKL-1254],2
2,CC(C)(C)c1cc(Cl)ccc1OCCn1ccnc1 [KKL-1304],11
3,O=C(Nc1ncc(Cc2ccccc2F)s1)c1ccccc1Cn1ccnc1 [KKL-0940],0
4,CC(C)COc1ccc(-c2nnn(CC(=O)Nc3ccc4c(c3)OCCO4)n2)cc1 [KKL-1251],9
5,COc1ccc(NCc2cc3ccc(SC)cc3nc2O)c(OC)c1 [KKL-1197],0
6,CCCOc1ccc(N2CC(C(=O)Nc3cc(C)ccn3)CC2=O)cc1 (stereo not drawn) [KKL-0689],0
7,CCc1nc2ccccc2n1CC(O)COc1cc(C)ccc1Cl (stereo not drawn) [KKL-1822],0
8,Nc1nc(N)c2c(Sc3ccc4ccccc4c3)cccc2n1 [KKL-1710],0
9,COC(=O)CSc1nnc(NC(=O)c2ccc(C(C)(C)C)cc2)s1 [KKL-0732],0
10,O=[N+]([O-])c1ccc(N2CCN(CCO)CC2)cc1NCCOc1cccc2ccccc12 [KKL-0869],0
11,CCOC(=O)c1c(-c2ccccc2)csc1NC(=O)c1cc2ccccc2oc1=O [KKL-1086],10
12,O=C(Nc1cccc(Br)c1)c1ccc(-c2ccc(Cl)cc2)o1 [KKL-1279],0
13,CNc1nc(SC)nnc1-c1cccc(Cl)c1Cl [KKL-1758],0
14,COC(=O)c1ccc(-c2noc(CN3CCCC(c4nc5ccccc5o4)C3)n2)cc1 (stereo not drawn) [KKL-0492],3
15,COC(=O)Cc1c(C)c2ccc(OCC(=O)OCc3ccccc3)c(C)c2oc1=O [KKL-1551],4
16,O=C(N[C@H]1CC[C@]2(CC1)CC(=O)c1ccccc1O2)c1cc2ccccc2o1 [KKL-1190],0
17,CC(C)(C)c1ccc(C(=O)NC(=S)N2CCCC2)cc1 [KKL-1436],12
18,COc1ccccc1C1=Nc2cccc3cccc(c23)N1 [KKL-0723],0
19,O=C(CC12CC3CC(CC(C3)C1)C2)NC(=S)Nc1ccc(-c2nc3ccccc3[nH]2)cc1 [KKL-1301],0
20,O=C(CC12CC3CC(CC(C3)C1)C2)Nc1cccc(C(F)(F)F)c1 [KKL-1282],0
21,COC(=O)c1ccc2nc(C)cc(Nc3ccc(OCc4ccccc4)cc3)c2c1 [KKL-1102],0

row,Compound,% activation [%]
1,COC(=O)c1ccc(C(=O)NC2CC(C)(C)Cc3c2cnn3-c2ccc(F)cc2)nc1 (stereo not drawn) [KKL-1173],6
2,N#CCCN(Cc1ccccc1)C(=S)NC(=O)c1ccccc1 [KKL-0582],14
3,CCOc1ccc(CN2CCN(CC(O)Cn3c4ccccc4c4ccccc43)CC2)cc1 (stereo not drawn) [KKL-1098],0
4,O=C(Nc1ccn(Cc2ccc(Cl)cc2)n1)c1ccc2c(c1)OCO2 [KKL-0566],0
5,O=C(Cn1cccc2cc(-c3ccco3)nc1-2)NCCOc1ccccc1 [KKL-0462],4
6,COC(=O)[C@@H]1Cc2c([nH]c3ccccc23)[C@H]2C[C@@H](NCCO)C[C@@H](c3ccc(-c4ccccc4)cc3)N21 [KKL-1602],0
7,CSc1ncc(C(=O)Nc2ccc3[nH]c4c(c3c2)CCCC4)cn1 [KKL-0710],0
8,Cc1ccc(Nc2c(-c3ccccn3)nc3cc(C)ccn23)cc1 [KKL-1523],0
9,Cc1cc(C)c2[nH]c3ccccc3c2n1 [KKL-1375],0
10,CCOC(=O)CSc1ccc(-c2nc3cc(C)c(C)cc3[nH]2)cn1 [KKL-1664],0
11,CC1CC1c1ccc(CN2CCc3nc(Nc4ccccc4)sc3CC2)o1 (stereo not drawn) [KKL-1777],0
12,CCC(CC)c1cc([C@H]2CN3CC[C@H]2C[C@@H]3CNCc2ccc(CO)o2)nc(-c2ccncc2)n1 [KKL-1592],0
13,CC(C)(C)c1cnc(NC(=O)c2ccccc2O)s1 [KKL-1388],0
14,Cc1ccn2c(-c3csc(Nc4ccccn4)n3)c(C)nc2c1 [KKL-0773],0
15,CC(=O)N1CC2(CCN(C(=O)CCc3nc4ccccc4oc3=O)CC2)Nc2ccccc21 [KKL-1234],2
16,c1ccc(-c2nc(NCCCn3ccnc3)c3oc4ccccc4c3n2)cc1 [KKL-0999],6
17,O=C(NC(=S)Nc1ccccc1N1CCCC1)c1cccc2ccccc12 [KKL-1488],12
18,COc1ccc(CNC(=O)c2c(C)nc3ccccn23)cc1 [KKL-1644],0
19,Cc1ccc2c(c1)c(=O)cc(C(F)(F)F)n2CCNC(=O)c1ccccn1 [KKL-1728],0
20,Cc1cc(Oc2ccc(N(C)C)cc2)cc(C2CCCN(C(=O)c3cc(C4CC4)on3)C2)n1 (stereo not drawn) [KKL-1227],0
21,CCOC(=O)c1cccc(NC(=O)C(Cl)Cl)c1 [KKL-0726],0

# 3 entries out of the list, ordered by length of the SMILES, rising.
row,Compound,% activation [%]
8,Cc1ccc(Nc2c(-c3ccccn3)nc3cc(C)ccn23)cc1 [KKL-1523],0
5,O=C(Cn1cccc2cc(-c3ccco3)nc1-2)NCCOc1ccccc1 [KKL-0462],4
4,O=C(Nc1ccn(Cc2ccc(Cl)cc2)n1)c1ccc2c(c1)OCO2 [KKL-0566],0

# More entries

row,Compound,% activation [%]
1,Cc1nn(-c2ccc(F)cc2)c2nc(O)c(CNCc3ccccc3F)cc12 [KKL-0342],0
2,CCc1ccc(NC(=O)c2cnc(N3CCN(c4ccccn4)CC3)c3ccccc23)cc1 [KKL-1597],4
3,CCOC(=O)COc1ccc2c(=O)c(-c3ccccc3F)coc2c1C [KKL-1532],0
4,O=C(NC(Cc1ccccc1)C(=O)Nc1ccccc1N1CCOCC1)c1cccs1 (stereo not drawn) [KKL-1830],2
5,COC(=O)CSc1nc(N2CCCCC2)c2c(c1C#N)CCCC2 [KKL-1493],0
6,COc1ccc2nccc(NC(=O)C3CCN(CCc4ccc(Cl)cc4)CC3)c2n1 [KKL-1814],1
7,Cc1cccc(Nc2nc(N)nc(CN3CCN(c4cccc(Cl)c4)CC3)n2)c1 [KKL-1055],0
8,Cc1oc2c(c1C(=O)Nc1cccc3ccccc13)CCCC2 [KKL-1492],0
9,COC(=O)C(C)Oc1ccc2c(=O)c(-c3ccc(Br)cc3)c(C)oc2c1 (stereo not drawn) [KKL-0414],9
10,c1ccc(C[C@H]2CN(c3nccc(Oc4ccc(-n5ccnc5)cc4)n3)CCN2)cc1 [KKL-1739],4
11,Clc1nc(NC2CC2)c2ccccc2n1 [KKL-1262],0
12,Cc1c(Cl)ccc(OCCCN2CCCC(C)C2)c1C (stereo not drawn) [KKL-1427],0
13,Cc1ccccc1OCCCON1C(=N)N=C(N)NC1(C)C [KKL-1698],11
14,COC(=O)CSc1nnc(-c2ccc(OC)c(OC)c2)o1 [KKL-1665],0
15,CCc1nc2sc3ccccc3c(=O)c2c(=O)n1Cc1ccc(OC)cc1 [KKL-0893],0
16,CC(C(=O)OCc1ccccc1)n1cnc2scc(-c3ccc(Br)cc3)c2c1=O (stereo not drawn) [KKL-1313],0
17,CC(=O)/C=C/c1ccc2ccccc2n1 [KKL-0886],0
18,CCc1ccc(S(=O)(=O)Nc2cc(CN3CCN(CCC(C)C)CC3)ccc2C)cc1 [KKL-1849],4
19,O=C(Nc1ccc2c(c1)CN(C(=O)/C=C/c1cccs1)CC2)c1ccccn1 [KKL-1112],0
20,CCN(CC)c1ccc(NC(=O)c2ccc([N+](=O)[O-])o2)c(C)c1 [KKL-1330],0
21,O=C(NCCc1ccc(Cl)cc1)c1ccc(CNc2c(N3CCOCC3)c(=O)c2=O)cc1 [KKL-1135],0
